No constants are given. Whether binding was seen depends on the method and setting. A result given as binding can be weak or reduced; the word gives no strength. Sequences can lack the tags named with a protein.
Molecular target: BatR (PA3049), bacterial two-hybrid fusion (P. aeruginosa PAO1)
Assay: two-hybrid

B1: Glycerol phosphate kinase (GlpK, PA3582), bacterial two-hybrid fusion (enzyme, UniProt Q51390 1-505)
chain: MTDKHNKKYVVALDQGTTSSRAIVFDRDANVVSQAQREFAQFYPQAGWVEHDPMEIWATQSSTLVEALAQASIEHDQVAAIGITNQRETTVVWDRHSGRPIHNAIVWQCRRSAAICAQLKRDGLEDYIRETTGLVTDPYFSGTKLKWILDNVEGARERARNGDLLFGTIDTWLIWKLTEGKVHVTDYTNASRTMLFNIHSRDWDARMLEVLDIPRSMLPEVRNSSEVYGNARIGGVGGGELPIAGIAGDQQAALFGQMCVEPGQAKNTYGTGCFLLMHTGDKAVKSTHGLLTTIACGPRGEVGYALEGAVFNGGSTVQWLRDELKVINDSFDSEYFATKVKDSNGVYLVPAFTGLGAPYWDPYARGAVFGLTRGVKADHLIRATLESIAYQTRDVLDAMQRDAGERLRALRVDGGAVANNFLMQFQADILGTRVERPVMRETTALGAAYLAGLACGFWSSLDELKSKAVIERVFEPECDEPRREKLYAGWKKAVERTRGWDDGEL
Question: B1 was tested. Which binding did it give?
Answer: binds

— article doi:10.1101/2024.04.17.589660
